# Data taken from the supplement of paper PMC8728848.
# Some of the results follow.
# Assays:
# Assay in all cases: glycan array binding signal (z-score within array); higher = stronger binding
# Conditions in all cases: glycan notation: IUPAC condensed, linker removed
# [1] = target: Man(a1-3)[Man(a1-6)]Man(a1-6)[Man(a1-3)]Man(b1-4)GlcNAc(b1-4)GlcNAc
# Method in brief: (§1)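 From the Consortium for Functional Glycomics database, 3228 arrays were curated, keeping only those whose protein sequence was available. Binding is given as a within-array Z-score averaged across arrays sharing a protein sequence and across linkers. Negative Z-scores can be read as non-binding.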
# [2] = target: Man(a1-3)[Man(a1-6)]Man(b1-4)GlcNAc(b1-4)GlcNAc
# Method in brief: as §1
# [3] = target: Man(b1-4)GlcNAc
# Method in brief: as §1
# [4] = target: Neu5Ac(a2-3)Gal
# Method in brief: as §1
# [5] = target: Neu5Ac(a2-3)Gal(b1-3)GalNAc
# Method in brief: as §1
# [6] = target: Neu5Ac(a2-3)Gal(b1-3)GalNAc(b1-3)Gal(a1-4)Gal(b1-4)Glc
# Method in brief: as §1
# [7] = target: Neu5Ac(a2-3)Gal(b1-3)GalNAc(b1-4)[Neu5Ac(a2-3)]Gal(b1-4)Glc
# Method in brief: as §1
# [8] = target: Neu5Ac(a2-3)Gal(b1-3)GalNAc6S
# Method in brief: as §1
# [9] = target: Neu5Ac(a2-3)Gal(b1-3)GlcNAc
# Method in brief: as §1
# [10] = target: Neu5Ac(a2-3)Gal(b1-3)GlcNAc(b1-3)Gal(b1-3)GlcNAc
# Method in brief: as §1
# [11] = target: Neu5Ac(a2-3)Gal(b1-3)GlcNAc(b1-3)Gal(b1-4)GlcNAc
# Method in brief: as §1
# [12] = target: Neu5Ac(a2-3)Gal(b1-3)GlcNAc6S
# Method in brief: as §1
# [13] = target: Neu5Ac(a2-3)Gal(b1-3)[Fuc(a1-4)]GlcNAc
# Method in brief: as §1
# [14] = target: Neu5Ac(a2-3)Gal(b1-3)[Fuc(a1-4)]GlcNAc(b1-3)Gal(b1-4)[Fuc(a1-3)]GlcNAc
# Method in brief: as §1
# [15] = target: Neu5Ac(a2-3)Gal(b1-3)[Neu5Ac(a2-3)Gal(b1-4)]GlcNAc
# Method in brief: as §1
# [16] = target: Neu5Ac(a2-3)Gal(b1-3)[Neu5Ac(a2-6)]GalNAc
# Method in brief: as §1
# [17] = target: Neu5Ac(a2-3)Gal(b1-4)Glc
# Method in brief: as §1
# [18] = target: Neu5Ac(a2-3)Gal(b1-4)GlcNAc
# Method in brief: as §1
# [19] = target: Neu5Ac(a2-3)Gal(b1-4)GlcNAc(b1-3)Gal(b1-3)GlcNAc
# Method in brief: as §1
# [20] = target: Neu5Ac(a2-3)Gal(b1-4)GlcNAc(b1-3)Gal(b1-4)GlcNAc
# Method in brief: as §1
# [21] = target: Neu5Ac(a2-3)Gal(b1-4)GlcNAc(b1-3)Gal(b1-4)GlcNAc(b1-3)Gal(b1-4)GlcNAc
# Method in brief: as §1
# [22] = target: Neu5Ac(a2-3)Gal(b1-4)GlcNAc(b1-3)Gal(b1-4)[Fuc(a1-3)]GlcNAc
# Method in brief: as §1
# [23] = target: Neu5Ac(a2-3)Gal(b1-4)GlcNAc(b1-6)[Gal(b1-3)]GalNAc
# Method in brief: as §1
# [24] = target: Neu5Ac(a2-3)Gal(b1-4)GlcNAc6S
# Method in brief: as §1
# [25] = target: Neu5Ac(a2-3)Gal(b1-4)[Fuc(a1-3)]GlcNAc
# Method in brief: as §1
# [26] = target: Neu5Ac(a2-3)Gal(b1-4)[Fuc(a1-3)]GlcNAc(b1-3)Gal
# Method in brief: as §1
# [27] = target: Neu5Ac(a2-3)Gal(b1-4)[Fuc(a1-3)]GlcNAc(b1-3)Gal(b1-4)GlcNAc
# Method in brief: as §1
# [28] = target: Neu5Ac(a2-3)Gal(b1-4)[Fuc(a1-3)]GlcNAc(b1-3)Gal(b1-4)[Fuc(a1-3)]GlcNAc(b1-3)Gal(b1-4)[Fuc(a1-3)]GlcNAc
# Method in brief: as §1
# [29] = target: Neu5Ac(a2-3)Gal(b1-4)[Fuc(a1-3)]GlcNAc6S
# Method in brief: as §1
# [30] = target: Neu5Ac(a2-3)Gal6S(b1-4)GlcNAc
# Method in brief: as §1
# [31] = target: Neu5Ac(a2-3)Gal6S(b1-4)[Fuc(a1-3)]GlcNAc
# Method in brief: as §1
# [32] = target: Neu5Ac(a2-3)GalNAc
# Method in brief: as §1
# [33] = target: Neu5Ac(a2-3)GalNAc(b1-4)GlcNAc
# Method in brief: as §1
# [34] = target: Neu5Ac(a2-3)[GalNAc(b1-4)]Gal(b1-4)Glc
# Method in brief: as §1
# [35] = target: Neu5Ac(a2-3)[GalNAc(b1-4)]Gal(b1-4)GlcNAc
# Method in brief: as §1
# [36] = target: Neu5Ac(a2-3)[Neu5Ac(a2-6)]GalNAc
# Method in brief: as §1
# [37] = target: Neu5Ac(a2-6)Gal(b1-4)GlcNAc
# Method in brief: as §1
# [38] = target: Neu5Ac(a2-6)Gal(b1-4)GlcNAc(b1-2)Man(a1-3)[Neu5Ac(a2-6)Gal(b1-4)GlcNAc(b1-2)Man(a1-6)]Man(b1-4)GlcNAc(b1-4)GlcNAc
# Method in brief: as §1
# [39] = target: Neu5Ac(a2-6)Gal(b1-4)GlcNAc(b1-3)Gal(b1-4)GlcNAc
# Method in brief: as §1
# [40] = target: Neu5Ac(a2-6)Gal(b1-4)GlcNAc(b1-3)Gal(b1-4)[Fuc(a1-3)]GlcNAc(b1-3)Gal(b1-4)[Fuc(a1-3)]GlcNAc
# Method in brief: as §1
# [41] = target: Neu5Ac(a2-6)Gal(b1-4)GlcNAc6S
# Method in brief: as §1
# [42] = target: Neu5Ac(a2-6)GalNAc
# Method in brief: as §1
# [43] = target: Neu5Ac(a2-6)GalNAc(b1-4)GlcNAc
# Method in brief: as §1
# [44] = target: Neu5Ac(a2-8)Neu5Ac
# Method in brief: as §1
# [45] = target: Neu5Ac(a2-8)Neu5Ac(a2-3)Gal(b1-4)Glc
# Method in brief: as §1
# [46] = target: Neu5Ac(a2-8)Neu5Ac(a2-3)[GalNAc(b1-4)]Gal(b1-4)Glc
# Method in brief: as §1
# [47] = target: Neu5Ac(a2-8)Neu5Ac(a2-8)Neu5Ac
# Method in brief: as §1
# [48] = target: Neu5Ac(a2-8)Neu5Ac(a2-8)Neu5Ac(a2-3)Gal(b1-4)Glc
# Method in brief: as §1
# [49] = target: Neu5Ac(a2-8)Neu5Ac(a2-8)Neu5Ac(a2-3)[GalNAc(b1-4)]Gal(b1-4)Glc
# Method in brief: as §1
# [50] = target: Neu5Ac(a2-8)Neu5Ac(a2-8)Neu5Ac(a2-8)Neu5Ac(a2-3)[GalNAc(b1-4)]Gal(b1-4)Glc
# Method in brief: as §1
# [51] = target: Neu5Ac9Ac(a2-6)Gal(b1-4)GlcNAc
# Method in brief: as §1
# [52] = target: Neu5Gc(a2-3)Gal(b1-3)GlcNAc
# Method in brief: as §1
# [53] = target: Neu5Gc(a2-3)Gal(b1-3)[Fuc(a1-4)]GlcNAc
# Method in brief: as §1
# [54] = target: Neu5Gc(a2-3)Gal(b1-4)Glc
# Method in brief: as §1
# [55] = target: Neu5Gc(a2-3)Gal(b1-4)GlcNAc
# Method in brief: as §1
# [56] = target: Neu5Gc(a2-3)Gal(b1-4)[Fuc(a1-4)]GlcNAc
# Method in brief: as §1
# [57] = target: Neu5Gc(a2-6)Gal(b1-4)GlcNAc
# Method in brief: as §1
# [58] = target: Neu5Gc(a2-6)GalNAc
# Method in brief: as §1
binder,measurement,setting,value
"C-Reactive Protein (Homo sapiens), P02741 (protein) MEKLLCFLVLTSLSHAFGQTDMSRKAFVFPKESDTSYVSLKAPLTKPLKAFTVCLHFYTELSSTRGYSIFSYATKRQDNEILIFWSKDIGYSFTVGGSEILFEVPEVTVAPVHICTSWESASGIVEFWVDGKPRVRKSLKKGYTVGAEASIILGQEQDSFGGNFEGSQSLVGDIGNVNMWDFVLSPDEINTIYLGGPFSPNVLNWRALKYEVQGEVFTKPQLWP",glycan array binding signal (z-score),[1],0.83
same,glycan array binding signal (z-score),[2],-0.294
same,glycan array binding signal (z-score),[3],-0.423
same,glycan array binding signal (z-score),[4],-0.084
same,glycan array binding signal (z-score),[5],-0.253
same,glycan array binding signal (z-score),[6],0.607
same,glycan array binding signal (z-score),[7],0.03
same,glycan array binding signal (z-score),[8],-0.274
same,glycan array binding signal (z-score),[9],-0.407
same,glycan array binding signal (z-score),[10],-0.281
same,glycan array binding signal (z-score),[11],-0.582
same,glycan array binding signal (z-score),[12],0.718
same,glycan array binding signal (z-score),[13],-0.459
same,glycan array binding signal (z-score),[14],0.712
same,glycan array binding signal (z-score),[15],0.258
same,glycan array binding signal (z-score),[16],0.09
same,glycan array binding signal (z-score),[17],-0.258
same,glycan array binding signal (z-score),[18],0.131
same,glycan array binding signal (z-score),[19],1.36
same,glycan array binding signal (z-score),[20],-0.055
same,glycan array binding signal (z-score),[21],-0.001
same,glycan array binding signal (z-score),[22],-0.118
same,glycan array binding signal (z-score),[23],1.51
same,glycan array binding signal (z-score),[24],1.28
same,glycan array binding signal (z-score),[25],-0.139
same,glycan array binding signal (z-score),[26],-0.111
same,glycan array binding signal (z-score),[27],0.402
same,glycan array binding signal (z-score),[28],0.731
same,glycan array binding signal (z-score),[29],-0.689
same,glycan array binding signal (z-score),[30],-0.121
same,glycan array binding signal (z-score),[31],0.578
same,glycan array binding signal (z-score),[32],0.372
same,glycan array binding signal (z-score),[33],-0.557
same,glycan array binding signal (z-score),[34],-0.489
same,glycan array binding signal (z-score),[35],-0.156
same,glycan array binding signal (z-score),[36],-0.518
same,glycan array binding signal (z-score),[37],-0.232
same,glycan array binding signal (z-score),[38],-0.304
same,glycan array binding signal (z-score),[39],-0.347
same,glycan array binding signal (z-score),[40],-0.463
same,glycan array binding signal (z-score),[41],-0.304
same,glycan array binding signal (z-score),[42],-0.521
same,glycan array binding signal (z-score),[43],-0.396
same,glycan array binding signal (z-score),[44],0.082
same,glycan array binding signal (z-score),[45],-0.528
same,glycan array binding signal (z-score),[46],-0.106
same,glycan array binding signal (z-score),[47],0.069
same,glycan array binding signal (z-score),[48],-0.257
same,glycan array binding signal (z-score),[49],0.34
same,glycan array binding signal (z-score),[50],0.158
same,glycan array binding signal (z-score),[51],-0.394
same,glycan array binding signal (z-score),[52],-0.267
same,glycan array binding signal (z-score),[53],-0.237
same,glycan array binding signal (z-score),[54],0.101
same,glycan array binding signal (z-score),[55],-0.102
same,glycan array binding signal (z-score),[56],0.164
same,glycan array binding signal (z-score),[57],0.624
same,glycan array binding signal (z-score),[58],1.02

# Rewritten with bars between the fields: entries from further up.
binder | measurement | setting | value
C-Reactive Protein (Homo sapiens), P02741 (protein) MEKLLCFLVLTSLSHAFGQTDMSRKAFVFPKESDTSYVSLKAPLTKPLKAFTVCLHFYTELSSTRGYSIFSYATKRQDNEILIFWSKDIGYSFTVGGSEILFEVPEVTVAPVHICTSWESASGIVEFWVDGKPRVRKSLKKGYTVGAEASIILGQEQDSFGGNFEGSQSLVGDIGNVNMWDFVLSPDEINTIYLGGPFSPNVLNWRALKYEVQGEVFTKPQLWP | glycan array binding signal (z-score) | [16] | 0.09
same | glycan array binding signal (z-score) | [17] | -0.258
same | glycan array binding signal (z-score) | [18] | 0.131
same | glycan array binding signal (z-score) | [19] | 1.36
same | glycan array binding signal (z-score) | [20] | -0.055
